In publication PMC4503993 one finds binding data, which are given here for three molecules.

Amino acid sequences for entries named in this document (tags omitted). A change or cut given only in a name is not applied to a line headed by its entry.
UniProt Q99PW8: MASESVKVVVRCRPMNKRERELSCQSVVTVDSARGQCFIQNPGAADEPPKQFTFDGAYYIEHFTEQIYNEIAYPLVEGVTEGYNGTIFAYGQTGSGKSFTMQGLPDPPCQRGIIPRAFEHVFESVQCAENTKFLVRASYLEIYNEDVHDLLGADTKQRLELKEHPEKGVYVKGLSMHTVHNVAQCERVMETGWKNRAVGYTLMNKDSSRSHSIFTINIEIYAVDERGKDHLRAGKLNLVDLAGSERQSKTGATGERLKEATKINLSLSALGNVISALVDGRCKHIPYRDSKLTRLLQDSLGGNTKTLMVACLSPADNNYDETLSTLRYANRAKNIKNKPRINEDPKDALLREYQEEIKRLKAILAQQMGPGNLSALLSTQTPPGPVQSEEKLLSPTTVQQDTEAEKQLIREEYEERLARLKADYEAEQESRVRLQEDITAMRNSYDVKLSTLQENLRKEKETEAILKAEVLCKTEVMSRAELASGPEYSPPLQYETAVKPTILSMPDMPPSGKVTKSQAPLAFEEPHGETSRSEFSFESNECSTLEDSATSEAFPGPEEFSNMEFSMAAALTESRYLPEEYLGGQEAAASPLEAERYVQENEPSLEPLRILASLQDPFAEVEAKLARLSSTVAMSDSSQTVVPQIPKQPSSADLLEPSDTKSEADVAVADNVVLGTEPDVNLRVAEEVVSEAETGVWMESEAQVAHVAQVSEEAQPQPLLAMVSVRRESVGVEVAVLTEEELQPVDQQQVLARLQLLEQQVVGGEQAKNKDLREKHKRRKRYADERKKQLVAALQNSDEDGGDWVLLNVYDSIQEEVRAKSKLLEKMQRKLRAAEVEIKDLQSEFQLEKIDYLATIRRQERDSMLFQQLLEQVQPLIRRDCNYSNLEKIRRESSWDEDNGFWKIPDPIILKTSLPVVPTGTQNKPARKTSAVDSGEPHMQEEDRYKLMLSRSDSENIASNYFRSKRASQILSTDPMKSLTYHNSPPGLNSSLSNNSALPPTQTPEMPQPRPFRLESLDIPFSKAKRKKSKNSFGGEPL

These are yes or no findings as the source states them, for the method shown. Binding seen in cells or lysates may run through a third protein. For some assays here: Binding can be weak; no strength is given. Tags and fused reporters may be left off the sequences shown.

Assay [1] has as its target T1, GFP-MVH (mouse VASA homologue) (mouse) (UniProt Q61496).
T1 sequence: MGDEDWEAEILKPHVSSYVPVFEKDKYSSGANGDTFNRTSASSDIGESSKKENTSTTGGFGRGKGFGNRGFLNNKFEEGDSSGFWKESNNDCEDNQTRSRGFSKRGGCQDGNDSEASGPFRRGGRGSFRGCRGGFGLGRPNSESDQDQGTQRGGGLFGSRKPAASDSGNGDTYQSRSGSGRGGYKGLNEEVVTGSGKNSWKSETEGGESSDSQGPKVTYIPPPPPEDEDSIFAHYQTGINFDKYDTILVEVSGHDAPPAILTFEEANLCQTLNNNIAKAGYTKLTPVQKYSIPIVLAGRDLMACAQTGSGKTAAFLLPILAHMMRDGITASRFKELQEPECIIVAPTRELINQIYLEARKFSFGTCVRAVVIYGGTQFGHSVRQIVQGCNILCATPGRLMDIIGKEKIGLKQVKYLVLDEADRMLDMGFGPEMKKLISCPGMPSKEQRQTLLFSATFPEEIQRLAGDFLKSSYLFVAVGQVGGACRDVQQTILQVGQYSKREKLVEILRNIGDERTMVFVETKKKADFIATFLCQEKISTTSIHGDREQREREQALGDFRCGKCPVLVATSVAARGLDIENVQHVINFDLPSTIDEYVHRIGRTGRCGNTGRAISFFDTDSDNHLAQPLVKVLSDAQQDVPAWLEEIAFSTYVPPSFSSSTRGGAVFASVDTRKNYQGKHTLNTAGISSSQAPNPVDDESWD
Put plainly: co-IP; HEK293T cells co-transfected with FLAG- and GFP-tagged constructs; lysates in TNE buffer (10 mM Tris-HCl pH 7.5, 150 mM NaCl, 1 mM EDTA, 1% Nonidet P-40); precipitated with anti-FLAG or anti-GFP antibody overnight at 4 °C; in Fig. 6 with or without co-expressed CaMKIV-CA.

In assay [2] the target is FLAG-KIF17b-ΔIV (mutant form of KIF17b with R-K-K-S deletion) (mouse) (UniProt Q99PW8). The description is as above.
The target in assay [3] is GST-KIF17b-CTD (C-terminal domain of KIF17b) (mouse). Put plainly: pull-down; purified GST-fusions of KIF17b truncations bound to glutathione-Sepharose beads, incubated with lysates of HEK293T cells transfected with GFP-MVH or GFP-MIWI; blotted with anti-GFP antibody; in Fig. 4C precipitates treated with RNase A at 37 °C for 1 min; only the target purified.
In assay [4] the target is GST-KIF17b-tail C-ΔPZD (mouse). The description is as above.
Assay [5] concerns the target GST-KIF17b-tail (mouse). Described as above.
The target in assay [6] is GST-KIF17b-tail C (mouse). Described as above.
For assay [7], the target named is GST-KIF17b-tail C-ΔSH3 (mouse). The description is as above.
Assay [8] addresses GST-KIF17b-tail C-ΔIV (mouse). The description is as above.

As to “FLAG-KIF17b-ΔM (motor-domain-deleted form of FLAG-tagged KIF17b) (mouse) (domain or fragment)”, in assay [1], the binding entry is listed as “binds”.

B1: GFP-CaMKIV-FL (enzyme, UniProt P08414 1-469)
chain: MLKVTVPSCPSSPCSSVTASTENLVPDYWIDGSNRDPLGDFFEVESELGRGATSIVYRCKQKGTQKPYALKVLKKTVDKKIVRTEIGVLLRLSHPNIIKLKEIFETPTEISLVLELVTGGELFDRIVEKGYYSERDARDAVKQILEAVAYLHENGIVHRDLKPENLLYATPAPDAPLKIADFGLSKIVEHQVLMKTVCGTPGYCAPEILRGCAYGPEVDMWSVGIITYILLCGFEPFYDERGDQFMFRRILNCEYYFISPWWDEVSLNAKDLVKKLIVLDPKKRLTTFQALQHPWVTGKAANFVHMDTAQKKLQEFNARRKLKAAVKAVVASSRLGSASSSHTSIQENHKASSDPPSTQDAKDSTDLLGKKMQEEDQEEDQVEAEASADEMRKLQSEEVEKDAGVKEEETSSMVPQDPEDELETDDPEMKRDSEEKLKSVEEEMDPMTEEEAPDAGLGVPQQDAIQPEY
In the case of B1, the binding entry in assay [2] is listed as “binds”.

B2: GFP-MVH (mouse VASA homologue) (protein, UniProt Q61496 1-702)
chain: T1 sequence
For the molecule B2, the binding entry is “binds” in assay [3]; “binds” in assay [4]; “binds” in assay [5]; “binds” in assay [6]; “binds” in assay [7]; “no binding” in assay [8].
